# Values from PubChem BioAssay AID1159584 (Peter MacCallum Cancer Centre, 2016)
# Screen: 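Knock-downs that harm CDH1-null cells more than parental MCF10A cells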 (primary screen)
# Cells: human MCF10A breast epithelial cells, parental and CDH1-null
# Reagents: siRNA against human genes
# Detection: 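ATP luminescence (CellTiter-Glo) viability per line relative to mean mock wells over all plates, and the ratio of CDH1-null to parental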
# Reading the numbers: CDH1-null / parental viability ratio: higher = CDH1-null cells survive relatively better than parental; CDH1-null viability vs mock: higher = more viable CDH1-null cells; parental viability vs mock: higher = more viable parental cells
# The deposit covers about 18,000 reagents; below is an unselected part. The record does not give: the amount of reagent, the time to read-out.
gene symbol,CDH1-null / parental viability ratio,CDH1-null viability vs mock (fraction of mock),parental viability vs mock (fraction of mock)
ARSD,0.94,0.92,0.98
BRAF,0.67,0.55,0.82
RAB13,0.94,0.9,0.96
AASDH,1.04,1.12,1.08
TRIM37,0.98,1,1.02
ZP4,0.89,0.74,0.83
ICOS,1.18,0.92,0.78
C1orf105,1.06,0.7,0.66
TIAM1,0.82,0.64,0.78
IL6ST,1.09,0.94,0.86
PNKP,1.17,0.77,0.66
CD55,0.94,0.66,0.7
KLHL34,0.81,0.62,0.77
ACTR2,1.17,0.98,0.84
THSD7B,0.74,0.7,0.94
CLLU1-AS1,0.66,0.5,0.76
MYBL1,1.13,0.85,0.75
RHBDL2,1.07,0.73,0.68
TBC1D23,1.08,0.82,0.76
CES5A,0.92,1,1.09
NRAP,0.94,0.67,0.71
SH3GL1,1.13,0.43,0.38
ZNF649,1.35,0.58,0.43
SNX1,1.14,0.98,0.86
PLPPR1,1.22,0.44,0.36
ZDHHC20,1.04,0.81,0.78
ERLIN2,1.18,0.59,0.5
TSPOAP1,1.37,0.78,0.57
PIGS,0.85,0.85,1
PIEZO1,0.75,0.59,0.79
SRP54,1.36,0.8,0.59
ZKSCAN7,1.23,0.86,0.7
CENPA,1.03,0.66,0.64
CXADR,0.83,0.92,1.11
GRPR,0.82,0.82,1
FCRLA,0.86,0.76,0.88
TNPO1,0.62,0.45,0.72
MEA1,0.84,0.82,0.98
UBXN6,1.79,0.75,0.42
DSC1,1.12,1.25,1.12
GATAD2B,1.27,0.81,0.64
ZNF526,1.01,0.84,0.83
HGF,1.24,0.94,0.76
ADIRF,1.23,0.32,0.26
RABGAP1,1.3,0.87,0.67
GRIN3B,1.09,1.07,0.98
PRRG4,1.08,0.96,0.89
RAPH1,1.06,0.74,0.7
OR7E24,0.81,0.84,1.04
PPP1R7,1.61,0.87,0.54
OR10X1,0.89,0.7,0.79
OR52B6,1.12,0.9,0.8
VIRMA,0.9,0.85,0.94
ZBP1,0.96,0.71,0.74
ICA1L,1.25,0.8,0.64
KCNB1,1.2,0.77,0.64
IGF2BP3,0.95,0.76,0.8
PPCS,1.27,1.04,0.82
MADD,0.92,1.1,1.19
OR52A4P,0.96,0.94,0.98
RIPPLY3,1,0.97,0.97
NUBP1,0.79,0.6,0.76
TPM4,0.97,0.83,0.86
AIFM3,1,0.82,0.82
SCYL3,0.84,0.59,0.7
ANKRD7,1.89,1.21,0.64
RGS17,1.06,0.76,0.72
ZNF714,1.24,0.84,0.68

Records listed so far whose gene name starts with I or i:
gene symbol,CDH1-null / parental viability ratio,CDH1-null viability vs mock (fraction of mock),parental viability vs mock (fraction of mock)
ICOS,1.18,0.92,0.78
IL6ST,1.09,0.94,0.86
ICA1L,1.25,0.8,0.64
IGF2BP3,0.95,0.76,0.8
